# Test results from PubChem BioAssay AID1117319 (Southern Research Institute, 2015).
# By UniProt entry, the sequences of proteins in these tests, tags left out. Where a name states a change or a piece, a line headed by the entry shows the natural chain unless it says otherwise.
# UniProt P69720: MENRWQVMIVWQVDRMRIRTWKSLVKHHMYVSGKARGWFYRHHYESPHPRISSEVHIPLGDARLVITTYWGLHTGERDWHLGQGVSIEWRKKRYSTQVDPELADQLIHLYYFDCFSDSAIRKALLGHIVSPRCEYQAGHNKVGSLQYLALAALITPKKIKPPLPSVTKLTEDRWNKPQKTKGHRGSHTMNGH
# UniProt P69721: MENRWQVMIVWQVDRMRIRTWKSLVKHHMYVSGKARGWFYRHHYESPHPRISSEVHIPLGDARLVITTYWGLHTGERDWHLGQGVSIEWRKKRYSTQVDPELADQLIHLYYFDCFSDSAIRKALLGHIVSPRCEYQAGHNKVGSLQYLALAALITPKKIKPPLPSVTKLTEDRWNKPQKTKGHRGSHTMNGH
# UniProt P69722: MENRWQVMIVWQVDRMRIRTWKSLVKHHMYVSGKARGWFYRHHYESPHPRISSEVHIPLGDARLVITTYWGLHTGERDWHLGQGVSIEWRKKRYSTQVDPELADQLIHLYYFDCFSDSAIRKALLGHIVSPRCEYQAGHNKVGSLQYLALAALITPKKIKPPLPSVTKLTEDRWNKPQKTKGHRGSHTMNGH
# UniProt P69723: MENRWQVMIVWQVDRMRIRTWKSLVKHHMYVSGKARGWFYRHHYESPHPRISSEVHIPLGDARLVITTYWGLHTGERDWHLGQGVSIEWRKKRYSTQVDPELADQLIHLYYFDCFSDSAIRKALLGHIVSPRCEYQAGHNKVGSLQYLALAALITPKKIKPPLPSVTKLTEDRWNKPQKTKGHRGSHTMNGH
# UniProt Q9HC16: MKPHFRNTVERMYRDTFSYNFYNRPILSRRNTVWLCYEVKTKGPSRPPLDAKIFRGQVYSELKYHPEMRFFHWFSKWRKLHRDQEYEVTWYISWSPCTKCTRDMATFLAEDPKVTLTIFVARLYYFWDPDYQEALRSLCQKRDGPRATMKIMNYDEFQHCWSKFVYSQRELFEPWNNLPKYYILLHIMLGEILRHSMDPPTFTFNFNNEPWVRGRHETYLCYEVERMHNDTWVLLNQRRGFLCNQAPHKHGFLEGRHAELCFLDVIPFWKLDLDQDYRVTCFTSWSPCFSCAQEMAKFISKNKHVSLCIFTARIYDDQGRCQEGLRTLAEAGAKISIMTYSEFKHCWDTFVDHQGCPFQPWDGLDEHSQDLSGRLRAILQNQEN
# Hit rate of the full screen: of about 260,000 compounds, about 1,500 (0.58%) were called active. This list was built around the results that the source calls inconclusive (neither active nor inactive); the mix of calls is not that of the screen.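 The calls were made as follows: active = inhibition above a set limit at one or more doses, reproduced on every date tested; inconclusive = results disagree between test dates, or hit never tested in dose response; inactive = the rest.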
# Target: Virion infectivity factor (Human immunodeficiency virus type 1 group M subtype B (isolate BH10)) + Virion infectivity factor (Human immunodeficiency virus type 1 group M subtype B (isolate BRU/LAI)) + Virion infectivity factor (Human immunodeficiency virus type 1 group M subtype B (isolate PCV12)) + Virion infectivity factor (Human immunodeficiency virus type 1 group M subtype B (isolate HXB2)) + DNA dC->dU-editing enzyme APOBEC-3G (Homo sapiens) (UniProt P69720+P69721+P69722+P69723+Q9HC16)
# Experiment: inhibitors of Vif binding to APOBEC3G peptide, primary screen, biochemical, TR-FRET, GST-Vif 1-94, biotin-A3G peptide, dose response retest (AID 1117319);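 also: Vif residues 1-94 fused to GST binding biotinylated APOBEC3G peptide 110-148; 0% = full assay without inhibitor and 100% = GST in place of GST-Vif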
# Conditions: stronger effect = higher value
row,Structure (SMILES),inhibition
1,Cc1ccccc1NC(=O)c1c(C)[nH]c(=S)c(C#N)c1-c1ccc(Cl)cc1,inactive: -0.84%
2,O=C1CC(c2ccco2)CC(O)=C1C=NCC1NCCc2ccccc21 (configuration not stated),inconclusive: 62.4%
3,Cc1nn2c(=S)[nH]nc2[nH]c1=O,inactive: 14.1%
4,CCCCOC(=O)c1ccc(NC(=S)NC(=O)c2c(Br)c(C)nn2C)cc1,inconclusive: 42%
5,CCOC(=O)N1CCN(C(=O)CCCn2nc(C)c3sc4ccccc4c3c2=O)CC1,inconclusive: 51.7%
6,CN(Cc1cccnc1)Cc1cn[nH]c1-c1ccc(-c2ccccc2)cc1,inconclusive: 55.9%
7,O=C(N/N=C/c1ccc(OCCCF)cc1)c1cc(OCC(F)(F)F)ccc1OCC(F)(F)F,inconclusive: 47.6%
8,NNC(=O)c1nn(-c2ccccc2)cc1O,inconclusive: 47.4%
9,Cc1cc([N+](=O)[O-])c(C)cc1-c1ccc(/C=N/NC(=O)Cn2nnnc2N)o1,inactive: 9.49%
10,O=C(O)C[C@@H](O)C(=O)O,inconclusive: 42.9%
11,Cc1cc(N2CC34C=CC(O3)C(C(=O)O)C4C2=O)no1 (configuration not stated),inconclusive: 39.4%
12,O=C(O)CCCC(=O)Nc1ccc(Br)cc1C(=O)O,inconclusive: 37.5%
13,CC(C)(C)NC(=O)C(c1ccc(O)cc1)N(C(=O)CCC(=O)Nc1ccccn1)c1ccc(F)cc1 (configuration not stated),inactive: 16.4%
14,c1cncc(-c2cccnc2)c1,inconclusive: 37.6%
15,CC(=O)Nc1cccc(C(=O)/C=C/c2ccc(C)cc2)c1,inconclusive: 52.9%
16,NC(=O)CSc1nnnn1-c1cccc(Cl)c1,inconclusive: 34.6%
17,NC(=O)[C@@H]1CCNc2c(I)cc([N+](=O)[O-])cc2C(=O)N[C@@H](CCC(=O)O)C(=O)N[C@@H](CO)C(=O)N1,inconclusive: 58.6%
18,CCOc1ccc(-c2nc(-c3ccncc3)no2)cc1OCC,inconclusive: 30.6%
19,CC(C)c1ccc(NC(=O)C2C3C=CC4(CN(CCCN5CCOCC5)C(=O)C24)O3)cc1 (configuration not stated),inconclusive: 33.5%

row,Structure (SMILES),inhibition
1,CC(=O)Oc1ccc2occ(/C=N/c3cc(=O)[nH]c(=S)[nH]3)c(=O)c2c1,inconclusive: 42.8%
2,Cc1cc(C(=O)CSc2nnc(-c3ccncc3)n2-c2ccccc2)c(C)n1C,inconclusive: 61.4%
3,CCN1CCCC1CN(Cc1cc2ccc(C)cc2[nH]c1=O)C(=S)Nc1ccccc1OC (configuration not stated),inconclusive: 40.1%
4,CN(C)Cc1cc(O)c(CN(C)C)cc1O,inconclusive: 58.5%
5,O=S(=O)(Nn1c(O)c(C=C2N=c3ccccc3=N2)sc1=S)c1ccccc1,inconclusive: 34.5%
6,Cc1ccc(S(=O)(=O)Cc2csc(N)n2)cc1,inconclusive: 35.7%
7,O=C1C(=Cc2ccco2)C(=O)c2ccccc21,inactive: -3.58%
8,CCC(C)N1CCCCC1C(=O)Nc1c(C)cc(C)cc1C (configuration not stated),inconclusive: 33.1%
9,CCc1ccc(NC(=O)C2CCN(S(C)(=O)=O)CC2)cc1,inactive: -4.22%
10,CC(C)Cc1cc(C(=O)N2CCC(N3CCC(C(=O)N4CCOCC4)CC3)CC2)n[nH]1,inactive: 12.3%
11,CCN(C(=O)CCS(=O)(=O)c1ccc(Br)cc1)c1ccc2c(c1)OCO2,inactive: 27.3%
12,COCC(C)NS(=O)(=O)c1ccc(NC(=O)C(Cc2ccccc2)NC(N)=O)cc1 (configuration not stated),inconclusive: 56.6%
13,COc1nc(N(C)C)nc(-n2nnc(C(C)=O)c2C)n1,inconclusive: 54%
14,O=C(NC1CCCC1)C(c1ccsc1)N(Cc1ccccc1)C(=O)Cc1cccs1 (configuration not stated),inconclusive: 58.9%
15,CC(C)CC(=O)Nc1nc2c(c(=O)[nH]1)CCCC2,inconclusive: 34.6%
16,Cc1ccc(NC(=O)/C=C\C(=O)NCC(=O)O)cc1,inconclusive: 38.4%
17,CC(C)CC(=O)NS(=O)(=O)c1ccc(NS(C)(=O)=O)cc1,inconclusive: 36.9%
18,CN1C2=C(C#N)C(c3ccccc3)(C(F)(F)F)NC(=O)N2c2ccccc21 (configuration not stated),inconclusive: 37.7%
19,CC(C)[C@H](NC(=O)Nc1cccc(Br)c1)C(=O)O,inconclusive: 36%

row,Structure (SMILES),inhibition
1,O=C(O)CCC(=O)NNc1ncnc2ccccc12,inactive: -0.06%
2,COc1ccc(NC(=O)c2c3c(nc4ccccc24)CCC3)cc1S(=O)(=O)N1CCOCC1,inconclusive: 47.8%
3,Cc1cc(C)cc(OCC(=O)Nc2ccc(N3CCCC3)cc2)c1,inconclusive: 56.1%
4,CC1=C(C(=O)Nc2ccccc2)C(c2ccco2)NC(=O)N1 (configuration not stated),inactive: -0.31%
5,COC(=O)/C=C/C(=O)Nc1ccc(O)c(Cl)c1,inconclusive: 36.2%
6,CC(=O)c1ccc(NC(=O)CSc2nc(=O)cc(N)n2-c2ccccc2)cc1,inconclusive: 42.8%
7,CCN(CC)S(=O)(=O)c1ccc(C(=O)OCCN2C(=O)CCC2=O)cc1,inconclusive: 35.2%
8,CCOC(=O)c1cc2c(ccn2C)n1CC(=O)N1CCN(c2ccccc2)CC1,inconclusive: 38.3%
9,Cc1ccccc1C1=Nn2c(nnc2-c2ccco2)SC1,inconclusive: 33%
10,COc1ccc2[nH]c(=O)c(COC(=O)c3ccco3)cc2c1,inconclusive: 50.8%
11,CC(C)C[C@H](NC(=O)OC(C)(C)C)C(=O)N1CCC(C(=O)N[C@@H](Cc2ccccc2)C(=O)O)CC1,inconclusive: 55.1%
12,CC1(C)Nc2ccc(O)cc2-c2c1ssc2=S,inconclusive: 56.2%
13,O=S1(=O)N=C2CCCCCN2C(c2ccccc2)N1 (configuration not stated),inconclusive: 54.4%
14,Cc1ccc(NC(=O)c2cc(NC(=O)CCCC(=O)O)ccc2Cl)cc1Cl,inconclusive: 62.6%
15,CCc1nnc(NC(=O)c2cccc(S(=O)(=O)N3CCN(C(C)=O)CC3)c2)s1,inconclusive: 52.1%
16,COCc1cc(=O)[nH]c(/N=C(\N)Nc2cccc(C)c2)n1,inconclusive: 50.3%
17,CCCCCC(=O)Nc1cccc(C2=NOC3(C2)C[C@H](C(N)=O)N(C(=O)CC#N)C3)c1 (some centres not stated),inconclusive: 64.2%
18,CCCCC(=O)c1c(O)c2ccccc2oc1=O,inconclusive: 35%
19,CCC(C)NC(=O)C(=O)NCc1ccccn1 (configuration not stated),inconclusive: 39.5%

# Rewritten bar-delimited: entries from further up.
row | Structure (SMILES) | inhibition
3 | Cc1cc(C)cc(OCC(=O)Nc2ccc(N3CCCC3)cc2)c1 | inconclusive: 56.1%
4 | CC1=C(C(=O)Nc2ccccc2)C(c2ccco2)NC(=O)N1 (configuration not stated) | inactive: -0.31%
5 | COC(=O)/C=C/C(=O)Nc1ccc(O)c(Cl)c1 | inconclusive: 36.2%
